No constants are given. Whether binding was seen depends on the method and setting. Some entries that bind do so weakly or less than the wild type.
Experiments:
[1] = target: mouse GPA33 recombinant protein (C-terminal His tag fusion protein, abcam) (mouse) (UniProt Q9JKA5); test: phage ELISA (legend of Fig. 4)
[2] = target: human GPA33 recombinant protein (C-terminal His tag fusion protein, abcam) (human) (UniProt Q99795); test: phage ELISA (legend of Fig. 4)
[3] = target: mouse GPA33 recombinant protein (C-terminal His tag fusion protein, abcam) (mouse) (UniProt Q9JKA5); test: phage ELISA on recombinant GPA33-His
[4] = target: human GPA33 recombinant protein (C-terminal His tag fusion protein, abcam) (human) (UniProt Q99795); test: phage ELISA on recombinant GPA33-His

Sequences of proteins named here, by UniProt entry; tags and fusion partners are left off. Residues count along the entry.
UniProt Q9JKA5, residues 22-235: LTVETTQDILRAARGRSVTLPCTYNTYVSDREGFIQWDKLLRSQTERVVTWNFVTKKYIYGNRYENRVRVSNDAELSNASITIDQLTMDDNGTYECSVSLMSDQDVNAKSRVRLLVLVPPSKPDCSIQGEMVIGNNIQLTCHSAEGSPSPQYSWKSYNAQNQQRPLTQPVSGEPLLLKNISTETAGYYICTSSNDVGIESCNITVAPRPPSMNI
UniProt Q99795, residues 22-235: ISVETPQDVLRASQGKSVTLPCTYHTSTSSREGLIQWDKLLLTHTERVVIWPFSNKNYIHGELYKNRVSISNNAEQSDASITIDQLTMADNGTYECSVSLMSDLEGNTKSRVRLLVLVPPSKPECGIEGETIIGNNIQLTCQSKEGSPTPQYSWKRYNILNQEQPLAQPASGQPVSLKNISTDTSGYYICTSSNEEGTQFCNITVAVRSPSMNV

Measured: binding

B1: GPA33-2RC28 cloned scFv phage (scFv)
scFv: EVQLVESGGGLVKPGGSLRLSCAASGFTFSSYSMNWVRQAPGKGLEWVSSISRDSTYIYYADSVKGRFTISRDNAKNSLYLQMNSLRAEDTAVYYCAREGVAGAFDIWGQGTMVTVSSGGGGSGGGGSGSTGSAIQLTQSPSSLSASVGDRVTITCRASQSISSYLNWYQQKPGKAPKLLIYIASSLQSGVPSRFSGSGSGTDFTLTISSLQPEDFATYYCQQSYNTWTFGQGTKVEIK
binds: all assays above

B2: GPA33-2RC17 cloned scFv phage (scFv)
scFv: QMQLVQSGGGLVKPGGSLRLSCAASGFTFSSYNMNWVRQAPGKGLEWVSSISSSGDFMYYADSVKGRFTISRDNAKNSLYLQMSSLRAEDTAVYYCAREGPGTPFDYWGQGTLVTVSSGGGGSGGGGSGSTGSAIQLTQSPSSLSASVGDRVTITCRASQSISSFLNWYQHKPGKAPKLLIYVASSLQSGVPSRFSGSGSGTDFTLTISSLQPEDFATYYCQQSHNTPYTFGQGTKLEIK
notes: also called G17
binds: all assays above

Reference: patent EP4636087A1, “ANTI-GPA33 ANTIBODY AND UTILIZATION THEREOF” (Kagoshima University, priority 2022, dated 2024)
